Assay results: article PMC2744266, “The Ataxia (ax ^J) Mutation Causes Abnormal GABAA Receptor Turnover in Mice” (PLoS Genetics, 2009)
These are yes or no findings as the source states them, for the method shown. For some of these results: In cells and extracts the contact can be indirect. Some entries that bind do so weakly or less than the wild type. For some of these results: Where a sequence is shown, tags or fusion partners need not be part of it. One block for each molecule: values may come before it.

Key:
[1] = target: GABAAR α1 subunit, full length, expressed in HEK293 cells (UniProt P62812); test: co-IP; HEK293 cells harvested in 1% Triton X-100 48 h after transfection; antibodies on protein G beads; extracts incubated over night; 50 mM TrisHCl, 150 mM NaCl, 5 mM MgCl2, pH 7.1
[2] = target: T1, large intracellular loop of GABAAR α1 (aa 334–420), two-hybrid bait (UniProt P62812); test: two-hybrid; Matchmaker LexA yeast two-hybrid system; bait in pGilda, prey in pJG4-5; activation of LEU2 and lacZ reporter genes
T1 sequence: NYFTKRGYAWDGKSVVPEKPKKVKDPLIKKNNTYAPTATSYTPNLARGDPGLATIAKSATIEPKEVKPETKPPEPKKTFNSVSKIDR

[3] = target: T2, GABAAR α1 loop deletion mutant aa 334–346, two-hybrid bait (UniProt P62812); test: as above
T2 sequence: NYFTKRGYAWDGK

[4] = target: T3, GST-tagged GABAAR α1 loop (aa 334–420) (UniProt P62812); test: pull-down; GST fusion from E. coli BL21 lysate coupled to glutathione-sepharose beads for 3 h; lysate applied for 10-12 h; Western blot; only the target purified
T3 sequence: T1 sequence

- binding [1]: binds
Molecule: GFP-Usp14(H434A-D450A) (from UniProt Q9JMA1 1-493) (enzyme)

- binding [2]: binds
- binding [3]: binds
Molecule: Usp14LF (full-length long form of ubiquitin-specific protease 14), two-hybrid prey (from UniProt Q9JMA1 1-493) (enzyme)

- binding [4]: binds
B1: Endogenous Usp14 protein derived from mouse brain lysates (enzyme, mouse (endogenous in brain), UniProt Q9JMA1 1-493, looked up)
chain: MPLYSVTVKWGKEKFEGVELNTDEPPMVFKAQLFALTGVQPARQKVMVKGGTLKDDDWGNIKMKNGMTVLMMGSADALPEEPSAKTVFVEDMTEEQLATAMELPCGLTNLGNTCYMNATVQCIRSVPELKDALKRYAGALRASGEMASAQYITAALRDLFDSMDKTSSSIPPIILLQFLHMAFPQFAEKGEQGQYLQQDANECWIQMMRVLQQKLEAIEDDSGRETDSSSAPAVTPSKKKSLIDQYFGVEFETTMKCTESEEEEVTKGKENQLQLSCFINQEVKYLFTGLKLRLQEEITKQSPTLQRNALYIKSSKISRLPAYLTIQMVRFFYKEKESVNAKVLKDVKFPLMLDVYELCTPELQEKMVSFRSKFKDLEDKKVNQQPNANDKNSPPKEIKYEPFSFADDIGSNNCGYYDLQAVLTHQGRSSSSGHYVSWVRRKQDEWIKFDDDKVSIVTPEDILRLSGGGDWHIAYVLLYGPRRVEIMEEESEQ
